Measured values: publication PMC11925395
No constants are given. Whether binding was seen depends on the method and setting. In cells and extracts the contact can be indirect. Some binding calls cover weakened binding; strength is not graded here.

Chains of the proteins cited; added tags and fusions are not shown.
UniProt Q96H55: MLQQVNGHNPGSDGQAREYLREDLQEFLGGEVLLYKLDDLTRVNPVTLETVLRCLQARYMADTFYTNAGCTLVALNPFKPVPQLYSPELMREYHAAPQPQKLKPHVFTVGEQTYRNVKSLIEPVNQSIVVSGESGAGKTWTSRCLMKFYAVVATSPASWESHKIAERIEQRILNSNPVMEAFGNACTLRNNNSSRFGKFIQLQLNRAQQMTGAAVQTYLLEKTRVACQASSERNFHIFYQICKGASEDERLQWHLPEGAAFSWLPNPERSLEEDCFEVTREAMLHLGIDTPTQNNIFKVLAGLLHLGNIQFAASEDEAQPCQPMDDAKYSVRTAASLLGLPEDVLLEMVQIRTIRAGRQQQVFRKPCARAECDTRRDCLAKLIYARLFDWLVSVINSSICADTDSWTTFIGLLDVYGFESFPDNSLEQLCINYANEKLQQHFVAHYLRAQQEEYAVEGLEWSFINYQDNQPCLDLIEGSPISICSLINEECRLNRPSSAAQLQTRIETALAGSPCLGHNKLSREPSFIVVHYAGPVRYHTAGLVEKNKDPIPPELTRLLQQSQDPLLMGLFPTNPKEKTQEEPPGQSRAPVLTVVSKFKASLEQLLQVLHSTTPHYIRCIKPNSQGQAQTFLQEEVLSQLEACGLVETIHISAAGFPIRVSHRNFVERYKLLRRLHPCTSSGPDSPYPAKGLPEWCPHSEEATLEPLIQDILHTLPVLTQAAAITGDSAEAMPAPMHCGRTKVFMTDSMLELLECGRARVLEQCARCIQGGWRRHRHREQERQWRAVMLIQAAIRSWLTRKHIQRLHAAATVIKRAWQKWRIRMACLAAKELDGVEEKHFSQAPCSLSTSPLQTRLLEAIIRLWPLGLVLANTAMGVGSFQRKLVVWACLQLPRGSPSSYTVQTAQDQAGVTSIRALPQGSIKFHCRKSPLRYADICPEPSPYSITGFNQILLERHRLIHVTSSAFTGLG
UniProt Q8IXI2: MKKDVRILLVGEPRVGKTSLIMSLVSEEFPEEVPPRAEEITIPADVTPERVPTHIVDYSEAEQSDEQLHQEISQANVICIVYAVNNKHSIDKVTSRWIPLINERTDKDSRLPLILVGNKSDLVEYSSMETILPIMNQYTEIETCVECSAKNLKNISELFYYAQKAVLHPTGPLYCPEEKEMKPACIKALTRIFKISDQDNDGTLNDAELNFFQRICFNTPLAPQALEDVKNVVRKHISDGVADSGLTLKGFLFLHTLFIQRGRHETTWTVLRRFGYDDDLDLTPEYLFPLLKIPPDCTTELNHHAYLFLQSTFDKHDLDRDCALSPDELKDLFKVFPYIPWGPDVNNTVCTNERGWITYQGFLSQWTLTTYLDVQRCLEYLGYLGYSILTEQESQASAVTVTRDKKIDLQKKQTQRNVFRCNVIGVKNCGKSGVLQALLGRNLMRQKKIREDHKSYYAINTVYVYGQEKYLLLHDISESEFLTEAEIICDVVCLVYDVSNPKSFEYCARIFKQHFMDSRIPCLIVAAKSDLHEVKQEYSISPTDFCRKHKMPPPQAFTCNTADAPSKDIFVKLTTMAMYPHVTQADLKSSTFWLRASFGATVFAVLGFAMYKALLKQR

Columns and labels:
[1] = target: Myo19–FLAG (UniProt Q96H55); assay: co-IP; anti-FLAG agarose affinity purification from lysates of cells stably expressing Myo19–FLAG (HeLa) or Mtx3–FLAG (Mtx3 KO cells); lysis buffer 150 mM NaCl, 20 mM HEPES pH 7.4, 2 mM MgCl2, 1 mM EGTA, 0.5% Triton X-100, 2 mM ATP; 2 h at 4°C; eluted with FLAG peptide; immunoblot
[2] = target: Myo19–FLAG (UniProt Q96H55); assay: co-IP; anti-FLAG agarose affinity purification of Myo19–FLAG from Mtx3 KO cells (absence of Mtx3); eluted with FLAG peptide; immunoblot

binding [1]: binds
Substance: Miro1, endogenous (from UniProt Q8IXI2 1-618)
binding [2]: no binding (condition: in Mtx3 KO cells (absence of Mtx3))
